Results are given in words; binding and its absence hold for the method and conditions named. In cells and extracts the contact can be indirect. A yes stands for co-enrichment or nearness to the bait. Other partners may have been found.
Experiments:
Assay in all cases: co-IP + affinity purification with mass spectrometry; tandem affinity purification of pre-ribosomal particles by TAP-tagged baits from yeast; Calmodulin-eluates analysed by Western with eS26 antibodies and by SRM-MS
[1] = target: T1, Enp1-TAP (S. cerevisiae) (UniProt P38333)
T1 sequence: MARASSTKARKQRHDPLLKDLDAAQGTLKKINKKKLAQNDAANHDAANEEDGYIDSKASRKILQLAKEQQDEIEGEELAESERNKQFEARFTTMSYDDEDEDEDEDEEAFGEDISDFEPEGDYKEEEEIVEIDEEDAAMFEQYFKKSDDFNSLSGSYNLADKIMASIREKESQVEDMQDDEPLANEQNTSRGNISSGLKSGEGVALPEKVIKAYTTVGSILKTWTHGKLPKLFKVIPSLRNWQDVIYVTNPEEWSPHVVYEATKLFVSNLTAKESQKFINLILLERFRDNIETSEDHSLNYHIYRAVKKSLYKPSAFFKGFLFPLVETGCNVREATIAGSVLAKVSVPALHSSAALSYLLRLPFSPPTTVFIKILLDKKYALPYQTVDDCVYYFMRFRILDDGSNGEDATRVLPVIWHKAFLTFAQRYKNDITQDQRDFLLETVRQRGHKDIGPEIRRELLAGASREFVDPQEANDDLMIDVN

The chains behind the UniProt entries cited, without tags or fusion partners. Where a name states a change or a piece, a line headed by the entry shows the natural chain unless it says otherwise.
UniProt P39938: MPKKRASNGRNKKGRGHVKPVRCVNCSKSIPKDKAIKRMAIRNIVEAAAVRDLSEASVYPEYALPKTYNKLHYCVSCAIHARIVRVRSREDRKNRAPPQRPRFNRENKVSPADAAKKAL

[2] = target: T2, Asc1-TAP (S. cerevisiae) (UniProt P38011)
T2 sequence: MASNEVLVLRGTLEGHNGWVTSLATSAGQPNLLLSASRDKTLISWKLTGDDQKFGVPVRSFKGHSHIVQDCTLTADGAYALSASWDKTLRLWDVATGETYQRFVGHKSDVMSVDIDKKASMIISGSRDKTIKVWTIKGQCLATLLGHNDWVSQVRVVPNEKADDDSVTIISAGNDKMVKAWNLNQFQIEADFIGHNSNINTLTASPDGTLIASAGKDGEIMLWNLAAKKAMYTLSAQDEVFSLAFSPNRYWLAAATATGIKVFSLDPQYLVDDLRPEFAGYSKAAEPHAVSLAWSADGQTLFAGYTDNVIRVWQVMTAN

[3] = target: T3, Noc4-TAP (S. cerevisiae) (UniProt Q06512)
T3 sequence: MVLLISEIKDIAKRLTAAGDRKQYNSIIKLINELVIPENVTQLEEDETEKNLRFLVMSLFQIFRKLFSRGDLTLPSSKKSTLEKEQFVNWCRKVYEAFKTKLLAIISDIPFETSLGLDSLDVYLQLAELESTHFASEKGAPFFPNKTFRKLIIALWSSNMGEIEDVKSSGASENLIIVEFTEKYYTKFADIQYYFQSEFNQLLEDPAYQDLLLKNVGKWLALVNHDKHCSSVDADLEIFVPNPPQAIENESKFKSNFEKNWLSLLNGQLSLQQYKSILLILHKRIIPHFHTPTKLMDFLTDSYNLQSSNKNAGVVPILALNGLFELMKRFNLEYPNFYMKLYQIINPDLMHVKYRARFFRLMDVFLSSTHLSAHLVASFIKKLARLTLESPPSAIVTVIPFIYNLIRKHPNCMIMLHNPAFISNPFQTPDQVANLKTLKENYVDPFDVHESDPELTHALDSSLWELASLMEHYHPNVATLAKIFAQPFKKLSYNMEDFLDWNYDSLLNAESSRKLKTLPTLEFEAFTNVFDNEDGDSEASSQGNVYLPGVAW

Measured: binding

eS26 (yeast Rps26), endogenous (from UniProt P39938)
binds: all assays above

From PMC4161973
